Reference: patent US20230293539A1, “MLL1-WDR5 PROTEIN-PROTEIN INTERACTION INHIBITOR COMPOUNDS AND USES THEREOF” (HUYABIO International, LLC, priority 2022, published 2023)
At least one read-out could not be matched to a standard name with certainty.

Experiment: Predicted brain concentrations based on mouse/rat PK/BBB data
Conditions: Equivalent Human 6.5 mg/kg
Procedure: The ability of a compound of Formula (IIIb) (HBI_084 (HBI-2375)) to cross the BBB is determined in a population comprising one or more human subjects by orally (PO) or intravenously (IV) administering a pharmaceutical composition comprising a compound of Formula (IIIb) to the individual members of the population of human subjects at one or more doses described in Example 5. Blood samples and CSF are drawn from the subjects and compound concentrations are determined in the blood plasma and CSF of the subjects as described in Example 4. Pharmacokinetic parameters are determined by means analogous to those described in Examples 1-4. Doses for HBI-2375 may be based on a target concentration in subjects' brain predicted using the following table.

Cc1c(F)c(N)cc(C(=O)Nc2cc(-n3cc(C(=O)N4CCN(C)CC4)nn3)c(F)cc2N2C[C@@H](C)N(C)[C@@H](C)C2)c1Cl [HYBI-084, 5-amino-2-chloro-4-fluoro-N-(4-fluoro-5-(4-(4-methylpiperazine-1-carbonyl)-1H-1,2,3-triazol-1-yl)-2-((3S,5R)-3,4,5-trimethylpiperazin-1-yl)phenyl)-3-methylbenzamide]
Predicted Mean Brain Concentration, Cmax (estimated from repeated PO mouse): 65.6 ng/g | Predicted Mean Brain Concentration, Cmax (estimated from single PO mouse): 42.9 ng/g | Predicted Mean Brain Concentration, Cmax (estimated from single PO rat): 100.5 ng/g
